Data reported in US20050152903A1.
These are yes or no findings as the source states them, for the method shown. Some results given as binding are weak or reduced against the parent protein; the word gives no strength.

Biological target: A box of HMGB1 (human (A box stated to be the same for human, rat and mouse))
Assay: ELISA, Western blot analysis (FIG. 7)

- binding: binds
B1: 10D4 HMGB1 mAb (antibody, V domains shown)
VH: EVQLQQSGTVLARPGASVKMSCKASGYSFTSYWMHWVKQRPGQGLEWIGAIYPGNRDASYNQKFKGKAKLTAVTSASTAYLELSSLTNEDSAVYYCTRDYGSFYFDYWGQGTTLTVSS
VL: DIQMTQTTSSLSASLGDRVTISCRASQDISNYLNWYQQKPDGTVKLLIYYTSRLHSGVPSRFSGSGSGTDYSLTISNLEQEDIATYFCQQGNTLPWTFGGGTKLEIK
